# Laboratory results reported in article PMC10986131.
# Chains of the proteins cited; added tags and fusions are not shown.
# UniProt P62873: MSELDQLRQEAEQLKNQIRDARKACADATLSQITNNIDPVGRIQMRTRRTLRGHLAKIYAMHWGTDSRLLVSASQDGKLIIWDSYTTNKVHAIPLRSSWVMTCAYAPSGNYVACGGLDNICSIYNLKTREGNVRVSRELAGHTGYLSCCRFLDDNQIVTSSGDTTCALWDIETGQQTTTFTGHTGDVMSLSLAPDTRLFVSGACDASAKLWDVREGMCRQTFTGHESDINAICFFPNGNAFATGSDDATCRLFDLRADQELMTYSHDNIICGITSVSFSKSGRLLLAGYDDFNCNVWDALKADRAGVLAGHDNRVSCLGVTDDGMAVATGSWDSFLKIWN
# UniProt P32121: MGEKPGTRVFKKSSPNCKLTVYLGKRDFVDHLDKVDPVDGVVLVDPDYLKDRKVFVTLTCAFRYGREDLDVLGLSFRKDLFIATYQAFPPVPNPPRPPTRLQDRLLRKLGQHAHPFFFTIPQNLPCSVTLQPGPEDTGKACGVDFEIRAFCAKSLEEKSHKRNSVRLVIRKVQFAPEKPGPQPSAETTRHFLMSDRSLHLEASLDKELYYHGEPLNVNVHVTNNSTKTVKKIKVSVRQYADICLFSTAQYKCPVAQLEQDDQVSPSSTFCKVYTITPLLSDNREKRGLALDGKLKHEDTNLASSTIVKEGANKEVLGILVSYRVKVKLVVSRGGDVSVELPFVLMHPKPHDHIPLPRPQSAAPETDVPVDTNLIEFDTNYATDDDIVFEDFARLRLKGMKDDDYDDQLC
# Results are given in words; binding and its absence hold for the method and conditions named. In cells and extracts the contact can be indirect. Some entries that bind do so weakly or less than the wild type.
# Target: FLAG-Gβ1 (UniProt P62873)
# Assay: co-IP; transfected HEK293 cells expressing D3R (Fig. 8D: CTRL-shRNA and TRAF6-KD cells); lysis in 20 mM HEPES, 150 mM NaCl, 2 mM EDTA, 10% glycerol, 0.5% NP-40; anti-FLAG agarose beads 2-3 h at 4 °C; immunoblot; cells treated with vehicle, 30 nM DA or 100 nM Quin by the desensitization protocol (treated, washed, retreated), some pretreated with 10 μM PP2 for 30 min
substance,measurement,value
GFP-β-Arr2 (from UniProt P32121 1-409),binding,binds
